The record followed here is PMC4005679, “In vitro assembly and activity of an archaeal CRISPR-Cas type I-A Cascade interference complex” (Nucleic Acids Research, 2014).

No constants are given. Whether binding was seen depends on the method and setting. Binding calls can cover weak binding; strength is not graded here.

The target of this assay is T1, Csa5 (recombinant, soluble) (Thermoproteus tenax) (UniProt G4RJZ0).
T1 sequence: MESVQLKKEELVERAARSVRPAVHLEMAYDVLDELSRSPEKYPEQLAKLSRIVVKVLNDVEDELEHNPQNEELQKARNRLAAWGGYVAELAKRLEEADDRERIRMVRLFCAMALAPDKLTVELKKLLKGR
The experiment in a line: SEC; six co-refolded Cascade subunits, incubated 30 min at 65°C, Superdex 200 10/300; fractions TCA-precipitated and analysed by SDS-PAGE; both purified.

Consider “Cas3′′ (recombinant, refolded) (Thermoproteus tenax)”, for which the binding entry was “binds”.
Next, “Cas3′ (recombinant, refolded) (Thermoproteus tenax)”: “binds”.
